This passage reports binding results from paper PMC9469104.

Protein sequences, listed by entry. Tags and fused reporters are not part of them.
UniProt Q15910: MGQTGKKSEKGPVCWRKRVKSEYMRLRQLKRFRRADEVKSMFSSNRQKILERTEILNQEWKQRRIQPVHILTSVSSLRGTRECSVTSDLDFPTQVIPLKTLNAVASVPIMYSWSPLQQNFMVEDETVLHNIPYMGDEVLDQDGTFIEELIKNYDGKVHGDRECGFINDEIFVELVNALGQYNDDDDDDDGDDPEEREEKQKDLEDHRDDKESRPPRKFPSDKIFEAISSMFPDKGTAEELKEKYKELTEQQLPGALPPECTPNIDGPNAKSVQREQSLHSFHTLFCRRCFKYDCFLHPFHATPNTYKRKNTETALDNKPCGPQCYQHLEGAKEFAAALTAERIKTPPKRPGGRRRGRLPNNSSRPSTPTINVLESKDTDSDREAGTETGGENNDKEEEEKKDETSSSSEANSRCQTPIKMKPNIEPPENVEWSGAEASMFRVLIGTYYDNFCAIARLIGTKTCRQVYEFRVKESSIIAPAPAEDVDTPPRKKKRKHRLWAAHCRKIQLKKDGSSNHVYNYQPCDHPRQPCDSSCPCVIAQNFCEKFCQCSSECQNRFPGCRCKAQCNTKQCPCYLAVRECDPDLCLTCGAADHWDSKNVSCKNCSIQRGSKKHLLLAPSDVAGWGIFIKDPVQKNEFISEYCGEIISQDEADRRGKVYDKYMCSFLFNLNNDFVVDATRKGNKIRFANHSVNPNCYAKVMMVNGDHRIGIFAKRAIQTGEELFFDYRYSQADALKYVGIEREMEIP
UniProt Q96AE4: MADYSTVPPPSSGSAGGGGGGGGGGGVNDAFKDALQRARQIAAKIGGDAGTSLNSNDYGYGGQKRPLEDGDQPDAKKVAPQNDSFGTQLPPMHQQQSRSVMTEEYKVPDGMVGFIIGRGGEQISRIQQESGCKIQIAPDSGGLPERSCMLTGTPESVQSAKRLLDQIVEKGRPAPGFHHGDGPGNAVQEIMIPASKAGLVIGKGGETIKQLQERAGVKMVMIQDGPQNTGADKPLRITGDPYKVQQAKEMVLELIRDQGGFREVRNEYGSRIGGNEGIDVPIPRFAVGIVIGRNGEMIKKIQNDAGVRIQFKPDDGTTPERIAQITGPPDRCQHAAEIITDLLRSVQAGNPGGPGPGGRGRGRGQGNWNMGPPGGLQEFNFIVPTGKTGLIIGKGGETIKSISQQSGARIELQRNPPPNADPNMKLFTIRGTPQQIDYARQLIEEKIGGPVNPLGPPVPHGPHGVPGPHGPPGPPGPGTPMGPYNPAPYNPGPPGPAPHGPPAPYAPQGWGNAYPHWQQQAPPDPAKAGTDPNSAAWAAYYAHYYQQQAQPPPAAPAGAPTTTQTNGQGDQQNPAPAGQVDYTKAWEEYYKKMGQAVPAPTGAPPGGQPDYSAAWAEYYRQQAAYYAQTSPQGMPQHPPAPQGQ

This assay has as its target enhancer of zeste homolog 2 (human (endogenous in SKOV-3)) (UniProt Q15910). The experiment in a line: co-IP; endogenous proteins in SKOV-3 whole cell lysate (150 mM NaCl, 50 mM Tris-HCl, 1 mM EDTA pH 7.5, 1% NP-40); precipitated with anti-FBP1 antibody, anti-EZH2 antibody or isotype IgG and Protein A+G agarose beads at 4°C; Western blot. (In general: A western blot detects proteins with antibodies after separation by electrophoresis.)

No constants are given. Whether binding was seen depends on the method and setting. In cells and extracts the contact can be indirect. Some binding calls cover weakened binding; strength is not graded here.

“far upstream element binding protein 1 (from UniProt Q96AE4 1-644)”: the binding entry is reported as “binds”.
